Results are given in words; binding and its absence hold for the method and conditions named. In cells and extracts the contact can be indirect. Binding calls can cover weak binding; strength is not graded here. Tags and fused reporters may be left off the sequences shown.
Legend:
[1] = biological target: T1, TACI-L (long TACI isoform) labeled with mCherry or YFP (human) (UniProt O14836); assay: FRET or BRET; YFP and mCherry labeled proteins co-transfected (1 ug of each plasmid) into HEK-293T cells, 48 h, FRET signal read by FACS (LSRII or LSRFortessa); adding rhAPRIL or rhBAFF had no effect on the TACI-TACI signal
T1 sequence: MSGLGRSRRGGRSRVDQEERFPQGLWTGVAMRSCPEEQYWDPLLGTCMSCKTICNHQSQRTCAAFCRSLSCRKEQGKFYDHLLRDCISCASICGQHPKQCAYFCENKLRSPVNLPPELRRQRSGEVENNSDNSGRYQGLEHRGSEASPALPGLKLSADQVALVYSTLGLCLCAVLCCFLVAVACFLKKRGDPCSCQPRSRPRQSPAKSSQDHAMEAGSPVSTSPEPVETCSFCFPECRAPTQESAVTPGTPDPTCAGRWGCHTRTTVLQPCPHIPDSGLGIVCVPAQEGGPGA

[2] = biological target: T2, TACI-S (short TACI isoform) labeled with mCherry or YFP (human) (UniProt O14836); assay: as above
T2 sequence: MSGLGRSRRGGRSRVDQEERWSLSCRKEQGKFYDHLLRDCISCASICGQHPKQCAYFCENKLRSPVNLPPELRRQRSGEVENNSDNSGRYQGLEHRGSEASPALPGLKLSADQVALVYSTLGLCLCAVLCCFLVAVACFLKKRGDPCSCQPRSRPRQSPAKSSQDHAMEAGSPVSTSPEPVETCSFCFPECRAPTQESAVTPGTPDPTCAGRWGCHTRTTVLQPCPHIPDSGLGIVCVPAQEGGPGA

Row | Substance | binding [1] | binding [2]
1 | TACI-S A181E, mCherry labeled (human) (receptor) | binds | binds
2 | TACI-S C104R, mCherry labeled (human) (receptor) | binds | binds
3 | TACI-S S194X, mCherry labeled (human) (receptor) | binds | binds
